Values from PubChem BioAssay AID1259308 (NCATS, 2017).

Assay: 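Genes whose loss raises luciferase production in HEK293 cells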 (primary screen)
Cells: human HEK293 embryonic kidney cells stably expressing firefly luciferase (HEK-CMV-Luc2-Hygro)
Reagent: single siRNA against human genes, 0.8 pmol siRNA per well
Timing: 72 h
Measurement: 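Luciferase light (ONE-Glo) measured on one replicate plate set and viability (CellTiter-Glo) on the other, scaled to a negative control siRNA, with robust z-scores and luciferase per cell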
Scale: total luciferase, z-score and total luciferase, % of control: higher = more reporter protein produced; luciferase per cell, z-score: higher = more reporter output per viable cell; viable cells, % of control: higher = more viable cells
Rule for the call: 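An siRNA counts as active if its total luciferase robust z-score exceeds 3; genes with two or more such siRNAs out of three were retested with fresh siRNAs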
Meaning of the calls: active = raised luciferase; inactive = no rise
In all, the deposit lists about 59,000 reagents; below is a random part of them. Of all reagents, about 1,510 (2.6%) are marked active. 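Calls use total luciferase alone and ignore viability, so some active siRNAs may act by altering cell number.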 Unmarked entries are inactive. The numbers tell different reagents against one gene apart. No sequences are given here.

gene knocked down | siRNA no. | total luciferase, z-score | total luciferase, % of control | luciferase per cell, z-score | viable cells, % of control
ALDH16A1 (GeneID 126133) | 1 | 0.88 | 99.4 | 1.83 | 68.6
ALDH16A1 (GeneID 126133) | 2 | -0.853 | 64.9 | -0.507 | 82.9
ALDH16A1 (GeneID 126133) | 3 | -0.984 | 62.3 | -1.36 | 99.7
UBN1 (GeneID 29855) | 1 | -1.65 | 49 | -1.46 | 80.4
UBN1 (GeneID 29855) | 2 | -0.414 | 73.7 | -0.37 | 90.7
UBN1 (GeneID 29855) | 3 | 0.494 | 91.7 | -0.133 | 106
GGT2P (GeneID 728441) | 1 | 0.383 | 89.5 | 0.41 | 89.8
GGT2P (GeneID 728441) | 2 | -0.567 | 70.6 | -0.985 | 102
GGT2P (GeneID 728441) | 3 | 0.555 | 92.9 | 0.373 | 94.1
LINC00693 (GeneID 645206) | 1 | -0.402 | 73.9 | -0.438 | 92.7
LINC00693 (GeneID 645206) | 2 | 1.36 | 109 | 1.06 | 92
LINC00693 (GeneID 645206) | 3 | -0.52 | 71.5 | -0.405 | 88.9
RAB1B (GeneID 81876) | 1 | 1.05 | 103 | 0.665 | 96.4
RAB1B (GeneID 81876) | 2 | 0.234 | 86.5 | 0.598 | 82.6
RAB1B (GeneID 81876) | 3 | 6.75 (active) | 216 | 4.38 | 76.3
PPM1N (GeneID 147699) | 1 | -0.696 | 68.1 | 0.201 | 72.1
PPM1N (GeneID 147699) | 2 | 0.527 | 92.4 | 0.764 | 84.4
PPM1N (GeneID 147699) | 3 | 0.109 | 84 | -0.274 | 101
LENG9 (GeneID 94059) | 1 | -0.529 | 71.4 | 0.113 | 77.4
LENG9 (GeneID 94059) | 2 | -0.458 | 72.8 | -0.668 | 97
LENG9 (GeneID 94059) | 3 | -0.7 | 68 | 0.247 | 71.2
SLC25A51P1 (GeneID 442229) | 1 | -1.31 | 55.8 | -1.55 | 93.7
SLC25A51P1 (GeneID 442229) | 2 | 1.31 | 108 | 1.1 | 90.4
SLC25A51P1 (GeneID 442229) | 3 | -0.267 | 76.6 | -0.136 | 88.7
SLC22A8 (GeneID 9376) | 1 | 0.883 | 99.5 | 0.7 | 92.4
SLC22A8 (GeneID 9376) | 2 | 1.25 | 107 | 1.08 | 89.8
SLC22A8 (GeneID 9376) | 3 | 0.75 | 96.8 | 0.0887 | 106
CMTM7 (GeneID 112616) | 1 | -0.171 | 78.5 | -0.441 | 98.5
CMTM7 (GeneID 112616) | 2 | 0.895 | 99.7 | 1.07 | 84
CMTM7 (GeneID 112616) | 3 | 0.278 | 87.4 | -0.226 | 104
GLB1L3 (GeneID 112937) | 1 | 0.317 | 88.2 | 0.42 | 88.2
GLB1L3 (GeneID 112937) | 2 | -0.0989 | 79.9 | -0.29 | 96.4
GLB1L3 (GeneID 112937) | 3 | -0.883 | 64.3 | -1.14 | 97.1
GADD45GIP1 (GeneID 90480) | 1 | 0.342 | 88.7 | 0.067 | 97.4
GADD45GIP1 (GeneID 90480) | 2 | 0.333 | 88.5 | 0.0864 | 96.7
GADD45GIP1 (GeneID 90480) | 3 | -1.41 | 53.8 | -1.47 | 88.6
SPATA31H1 (GeneID 84226) | 1 | -0.345 | 75 | -0.553 | 97
SPATA31H1 (GeneID 84226) | 2 | -0.411 | 73.7 | -0.0681 | 83.9
SPATA31H1 (GeneID 84226) | 3 | -0.774 | 66.5 | -0.213 | 78.6
PPP1R3B (GeneID 79660) | 1 | 1.61 | 114 | 1.82 | 79
PPP1R3B (GeneID 79660) | 2 | -0.337 | 75.2 | -0.705 | 101
PPP1R3B (GeneID 79660) | 3 | 0.859 | 99 | 0.731 | 91.2
PLSCR1 (GeneID 5359) | 1 | 0.241 | 86.7 | 0.12 | 93.8
PLSCR1 (GeneID 5359) | 2 | -1 | 61.9 | -1.22 | 95.4
PLSCR1 (GeneID 5359) | 3 | -0.0248 | 81.4 | -0.478 | 103
AMMECR1L (GeneID 83607) | 1 | 0.00767 | 82 | 0.818 | 73.9
AMMECR1L (GeneID 83607) | 2 | 0.349 | 88.8 | -0.264 | 106
AMMECR1L (GeneID 83607) | 3 | -0.728 | 67.4 | -0.558 | 87.2
PCTP (GeneID 58488) | 1 | 0.77 | 97.2 | 0.489 | 95.5
PCTP (GeneID 58488) | 2 | 1.04 | 103 | 0.175 | 109
PCTP (GeneID 58488) | 3 | 0.474 | 91.3 | 0.219 | 96.3
PRTN3 (GeneID 5657) | 1 | -0.0663 | 80.6 | -0.102 | 92.5
PRTN3 (GeneID 5657) | 2 | -1.88 | 44.5 | 1.67 | 32
PRTN3 (GeneID 5657) | 3 | 3.56 (active) | 153 | 2.33 | 92.5
H2BC1 (GeneID 255626) | 1 | -0.898 | 64 | -1.03 | 93.9
H2BC1 (GeneID 255626) | 2 | -0.329 | 75.3 | -0.26 | 90.1
H2BC1 (GeneID 255626) | 3 | 0.44 | 90.6 | -0.381 | 112

Entries above whose target name begins with L or l:
gene knocked down | siRNA no. | total luciferase, z-score | total luciferase, % of control | luciferase per cell, z-score | viable cells, % of control
LINC00693 (GeneID 645206) | 1 | -0.402 | 73.9 | -0.438 | 92.7
LINC00693 (GeneID 645206) | 2 | 1.36 | 109 | 1.06 | 92
LINC00693 (GeneID 645206) | 3 | -0.52 | 71.5 | -0.405 | 88.9
LENG9 (GeneID 94059) | 1 | -0.529 | 71.4 | 0.113 | 77.4
LENG9 (GeneID 94059) | 2 | -0.458 | 72.8 | -0.668 | 97
LENG9 (GeneID 94059) | 3 | -0.7 | 68 | 0.247 | 71.2
